Tested on: BAF complex subunits and histone proteins
Test: Mass spectrometry proteomics of purified HA-SS18 WT and HA-SS18-SSX1 complexes (Tables 5A-5E)
Parameters: species or system human
[1] = HA-SS18SSX1_NE_peptides: protein co-purified with HA-SS18-SSX1 BAF complexes from soluble nuclear extract (NE), HEK-293T cells
[2] = HA-SS18WT_NE_peptides: proteins co-purified with HA-SS18 WT from nuclear extract (NE), HEK-293T
[3] = HA-SS18WT_NE_peptides: HA-SS18 WT complexes purified from nuclear extract (NE), HEK-293T, label = protein identified (Gene Symbol)

B1: ATP2C1 (protein, UniProt P98194 1-919, looked up)
Calcium-transporting ATPase …: MKVARFQKIPNGENETMIPVLTSKKASELPVSEVASILQADLQNGLNKCEVSHRRAFHGWNEFDISEDEPLWKKYISQFKNPLIMLLLASAVISVLMHQFDDAVSITVAILIVVTVAFVQEYRSEKSLEELSKLVPPECHCVREGKLEHTLARDLVPGDTVCLSVGDRVPADLRLFEAVDLSIDESSLTGETTPCSKVTAPQPAATNGDLASRSNIAFMGTLVRCGKAKGVVIGTGENSEFGEVFKMMQAEEAPKTPLQKSMDLLGKQLSFYSFGIIGIIMLVGWLLGKDILEMFTISVSLAVAAIPEGLPIVVTVTLALGVMRMVKKRAIVKKLPIVETLGCCNVICSDKTGTLTKNEMTVTHIFTSDGLHAEVTGVGYNQFGEVIVDGDVVHGFYNPAVSRIVEAGCVCNDAVIRNNTLMGKPTEGALIALAMKMGLDGLQQDYIRKAEYPFSSEQKWMAVKCVHRTQQDRPEICFMKGAYEQVIKYCTTYQSKGQTLTLTQQQRDVYQQEKARMGSAGLRVLALASGPELGQLTFLGLVGIIDPPRTGVKEAVTTLIASGVSIKMITGDSQETAVAIASRLGLYSKTSQSVSGEEIDAMDVQQLSQIVPKVAVFYRASPRHKMKIIKSLQKNGSVVAMTGDGVNDAVALKAADIGVAMGQTGTDVCKEAADMILVDDDFQTIMSAIEEGKGIYNNIKNFVRFQLSTSIAALTLISLATLMNFPNPLNAMQILWINIIMDGPPAQSLGVEPVDKDVIRKPPRNWKDSILTKNLILKILVSSIIIVCGTLFVFWRELRDNVITPRDTTMTFTCFVFFDMFNALSSRSQTKSVFEIGLCSNRMFCYAVLGSIMGQLLVIYFPPLQKVFQTESLSILDLLFLLGLTSSVCIVAEIIKKVERSREKIQKHVSSTSSSFLEV
Total (peptides) [1]: 1 | Unique (peptides) [1]: 1

B2: ACAD8 (protein, UniProt Q9UKU7 23-415, looked up)
Isobutyryl-CoA dehydrogenase, …: LVQTGHRSLTSCIDPSMGLNEEQKEFQKVAFDFAAREMAPNMAEWDQKELFPVDVMRKAAQLGFGGVYIQTDVGGSGLSRLDTSVIFEALATGCTSTTAYISIHNMCAWMIDSFGNEEQRHKFCPPLCTMEKFASYCLTEPGSGSDAASLLTSAKKQGDHYILNGSKAFISGAGESDIYVVMCRTGGPGPKGISCIVVEKGTPGLSFGKKEKKVGWNSQPTRAVIFEDCAVPVANRIGSEGQGFLIAVRGLNGGRINIASCSLGAAHASVILTRDHLNVRKQFGEPLASNQYLQFTLADMATRLVAARLMVRNAAVALQEERKDAVALCSMAKLFATDECFAICNQALQMHGGYGYLKDYAVQQYVRDSRVHQILEGSNEVMRILISRSLLQE
Total (peptides) [1]: 1 | Unique (peptides) [1]: 1

B3: TIMM22 (protein, UniProt Q9Y584 1-194, looked up)
Mitochondrial import inner …: MAAAAPNAGGSAPETAGSAEAPLQYSLLLQYLVGDKRQPRLLEPGSLGGIPSPAKSEEQKMIEKAMESCAFKAALACVGGFVLGGAFGVFTAGIDTNVGFDPKDPYRTPTAKEVLKDMGQRGMSYAKNFAIVGAMFSCTECLIESYRGTSDWKNSVISGCITGGAIGFRAGLKAGAIGCGGFAAFSAAIDYYLR
Total (peptides) [1]: 1 | Unique (peptides) [1]: 1 | Total (peptides) [2]: 1 | Unique (peptides) [2]: 1

B4: RFT1 (protein, UniProt Q96AA3 1-541, looked up)
Man(5)GlcNAc(2)-PP-dolichol …: MGSQEVLGHAARLASSGLLLQVLFRLITFVLNAFILRFLSKEIVGVVNVRLTLLYSTTLFLAREAFRRACLSGGTQRDWSQTLNLLWLTVPLGVFWSLFLGWIWLQLLEVPDPNVVPHYATGVVLFGLSAVVELLGEPFWVLAQAHMFVKLKVIAESLSVILKSVLTAFLVLWLPHWGLYIFSLAQLFYTTVLVLCYVIYFTKLLGSPESTKLQTLPVSRITDLLPNITRNGAFINWKEAKLTWSFFKQSFLKQILTEGERYVMTFLNVLNFGDQGVYDIVNNLGSLVARLIFQPIEESFYIFFAKVLERGKDATLQKQEDVAVAAAVLESLLKLALLAGLTITVFGFAYSQLALDIYGGTMLSSGSGPVLLRSYCLYVLLLAINGVTECFTFAAMSKEEVDRYNFVMLALSSSFLVLSYLLTRWCGSVGFILANCFNMGIRITQSLCFIHRYYRRSPHRPLAGLHLSPVLLGTFALSGGVTAVSEVFLCCEQGWPARLAHIAVGAFCLGATLGTAFLTETKLIHFLRTQLGVPRRTDKMT
Total (peptides) [1]: 1 | Unique (peptides) [1]: 1 | Total (peptides) [2]: 2 | Unique (peptides) [2]: 2

B5: RAB39B (protein, UniProt Q96DA2 1-213, looked up)
Ras-related protein Rab-39B: MEAIWLYQFRLIVIGDSTVGKSCLIRRFTEGRFAQVSDPTVGVDFFSRLVEIEPGKRIKLQIWDTAGQERFRSITRAYYRNSVGGLLLFDITNRRSFQNVHEWLEETKVHVQPYQIVFVLVGHKCDLDTQRQVTRHEAEKLAAAYGMKYIETSARDAINVEKAFTDLTRDIYELVKRGEITIQEGWEGVKSGFVPNVVHSSEEVVKSERRCLC
Total (peptides) [1]: 1 | Unique (peptides) [1]: 1

B6: TAF1C (protein, UniProt Q15572 1-869, looked up)
TATA box-binding …: MDFPSSLRPALFLTGPLGLSDVPDLSFMCSWRDALTLPEAQPQNSENGALHVTKDLLWEPATPGPLPMLPPLIDPWDPGLTARDLLFRGGCRYRKRPRVVLDVTEQISRFLLDHGDVAFAPLGKLMLENFKLEGAGSRTKKKTVVSVKKLLQDLGGHQPWGCPWAYLSNRQRRFSILGGPILGTSVASHLAELLHEELVLRWEQLLLDEACTGGALAWVPGRTPQFGQLVYPAGGAQDRLHFQEVVLTPGDNPQFLGKPGRIQLQGPVRQVVTCTVQGESKALIYTFLPHWLTCYLTPGPFHPSSALLAVRSDYHCAVWKFGKQWQPTLLQAMQVEKGATGISLSPHLPGELAICSRSGAVCLWSPEDGLRQIYRDPETLVFRDSSSWRWADFTAHPRVLTVGDRTGVKMLDTQGPPGCGLLLFRLGAEASCQKGERVLLTQYLGHSSPKCLPPTLHLVCTQFSLYLVDERLPLVPMLKWNHGLPSPLLLARLLPPPRPSCVQPLLLGGQGGQLQLLHLAGEGASVPRLAGPPQSLPSRIDSLPAFPLLEPKIQWRLQERLKAPTIGLAAVVPPLPSAPTPGLVLFQLSAAGDVFYQQLRPQVDSSLRRDAGPPGDTQPDCHAPTASWTSQDTAGCSQWLKALLKVPLAPPVWTAPTFTHRQMLGSTELRREEEEGQRLGVLRKAMARGQLLLQRDLGSLPAAEPPPAPESGLEDKLSERLGEAWAGRGAAWWERQQGRTSEPGRQTRRPKRRTQLSSSFSLSGHVDPSEDTSSPHSPEWPPADALPLPPTTPPSQELTPDACAQGVPSEQRQMLRDYMAKLPPQRDTPGCATTPPHSQASSVRATRSQQHTPVLSSSQPLRKKPRMGF
Total (peptides) [1]: 1 | Unique (peptides) [1]: 1

B7: SLC30A1 (protein, UniProt Q9Y6M5 1-507, looked up)
Proton-coupled zinc …: MGCWGRNRGRLLCMLALTFMFMVLEVVVSRVTSSLAMLSDSFHMLSDVLALVVALVAERFARRTHATQKNTFGWIRAEVMGALVNAIFLTGLCFAILLEAIERFIEPHEMQQPLVVLGVGVAGLLVNVLGLCLFHHHSGFSQDSGHGHSHGGHGHGHGLPKGPRVKSTRPGSSDINVAPGEQGPDQEETNTLVANTSNSNGLKLDPADPENPRSGDTVEVQVNGNLVREPDHMELEEDRAGQLNMRGVFLHVLGDALGSVIVVVNALVFYFSWKGCSEGDFCVNPCFPDPCKAFVEIINSTHASVYEAGPCWVLYLDPTLCVVMVCILLYTTYPLLKESALILLQTVPKQIDIRNLIKELRNVEGVEEVHELHVWQLAGSRIIATAHIKCEDPTSYMEVAKTIKDVFHNHGIHATTIQPEFASVGSKSSVVPCELACRTQCALKQCCGTLPQAPSGKDAEKTPAVSISCLELSNNLEKKPRRTKAENIPAVVIEIKNMPNKQPESSL
Total (peptides) [1]: 1 | Unique (peptides) [1]: 1

B8: TSPYL1 (protein, UniProt Q9H0U9 1-437, looked up)
Testis-specific …: MSGLDGVKRTTPLQTHSIIISDQVPSDQDAHQYLRLRDQSEATQVMAEPGEGGSETVALPPPPPSEEGGVPQDAAGRGGTPQIRVVGGRGHVAIKAGQEEGQPPAEGLAAASVVMAADRSLKKGVQGGEKALEICGAQRSASELTAGAEAEAEEVKTGKCATVSAAVAERESAEVVKEGLAEKEVMEEQMEVEEQPPEGEEIEVAEEDRLEEEAREEEGPWPLHEALRMDPLEAIQLELDTVNAQADRAFQQLEHKFGRMRRHYLERRNYIIQNIPGFWMTAFRNHPQLSAMIRGQDAEMLRYITNLEVKELRHPRTGCKFKFFFRRNPYFRNKLIVKEYEVRSSGRVVSLSTPIIWRRGHEPQSFIRRNQDLICSFFTWFSDHSLPESDKIAEIIKEDLWPNPLQYYLLREGVRRARRRPLREPVEIPRPFGFQSG
Total (peptides) [1]: 1 | Unique (peptides) [1]: 1

B9: RCE1 (protein, UniProt Q9Y256 2-329, looked up)
CAAX prenyl protease 2: AALGGDGLRLLSVSRPERPPESAALGGLGPGLCCWVSVFSCLSLACSYVGSLYVWKSELPRDHPAVIKRRFTSVLVVSSLSPLCVLLWRELTGIQPGTSLLTLMGFRLEGIFPAALLPLLLTMILFLGPLMQLSMDCPCDLADGLKVVLAPRSWARCLTDMRWLRNQVIAPLTEELVFRACMLPMLAPCMGLGPAVFTCPLFFGVAHFHHIIEQLRFRQSSVGNIFLSAAFQFSYTAVFGAYTAFLFIRTGHLIGPVLCHSFCNYMGFPAVCAALEHPQRRPLLAGYALGVGLFLLLLQPLTDPKLYGSLPLCVLLERAGDSEAPLCS
Total (peptides) [1]: 1 | Unique (peptides) [1]: 1

B10: ORC5 (protein, UniProt O43913 1-435, looked up)
Origin recognition complex …: MPHLENVVLCRESQVSILQSLFGERHHFSFPSIFIYGHTASGKTYVTQTLLKTLELPHVFVNCVECFTLRLLLEQILNKLNHLSSSEDGCSTEITCETFNDFVRLFKQVTTAENLKDQTVYIVLDKAEYLRDMEANLLPGFLRLQELADRNVTVLFLSEIVWEKFRPNTGCFEPFVLYFPDYSIGNLQKILSHDHPPEYSADFYAAYINILLGVFYTVCRDLKELRHLAVLNFPKYCEPVVKGEASERDTRKLWRNIEPHLKKAMQTVYLREISSSQWEKLQKDDTDPGQLKGLSAHTHVELPYYSKFILIAAYLASYNPARTDKRFFLKHHGKIKKTNFLKKHEKTSNHLLGPKPFPLDRLLAILYSIVDSRVAPTANIFSQITSLVTLQLLTLVGHDDQLDGPKYKCTVSLDFIRAIARTVNFDIIKYLYDFL
Total (peptides) [1]: 1 | Unique (peptides) [1]: 1 | Total (peptides) [3]: 3 | Unique (peptides) [3]: 3

B11: PCBP2 (protein, UniProt Q15366 1-365, looked up)
Poly(rC)-binding protein 2: MDTGVIEGGLNVTLTIRLLMHGKEVGSIIGKKGESVKKMREESGARINISEGNCPERIITLAGPTNAIFKAFAMIIDKLEEDISSSMTNSTAASRPPVTLRLVVPASQCGSLIGKGGCKIKEIRESTGAQVQVAGDMLPNSTERAITIAGIPQSIIECVKQICVVMLETLSQSPPKGVTIPYRPKPSSSPVIFAGGQDRYSTGSDSASFPHTTPSMCLNPDLEGPPLEAYTIQGQYAIPQPDLTKLHQLAMQQSHFPMTHGNTGFSGIESSSPEVKGYWGLDASAQTTSHELTIPNDLIGCIIGRQGAKINEIRQMSGAQIKIANPVEGSTDRQVTITGSAASISLAQYLINVRLSSETGGMGSS
Total (peptides) [1]: 1 | Unique (peptides) [1]: 1 | Total (peptides) [2]: 1 | Unique (peptides) [2]: 1

Reference: patent US20250283871A1, “COMPOSITIONS AND METHODS FOR MODULATING THE INTERACTION BETWEEN SS18-SSX FUSION ONCOPROTEIN AND NUCLEOSOMES” (Dana-Farber Cancer Institute, Inc., priority 2020, published 2025)
